Source: article PMC11142376
No constants are given. Whether binding was seen depends on the method and setting. Some results given as binding are weak or reduced against the parent protein; the word gives no strength. Where a sequence is shown, tags or fusion partners need not be part of it.

Protein sequences, listed by entry. Tags and fused reporters are not part of them.
UniProt P55852: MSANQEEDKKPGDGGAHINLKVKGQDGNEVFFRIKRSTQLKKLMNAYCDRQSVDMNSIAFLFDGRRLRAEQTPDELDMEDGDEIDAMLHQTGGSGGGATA
UniProt Q9FLP6: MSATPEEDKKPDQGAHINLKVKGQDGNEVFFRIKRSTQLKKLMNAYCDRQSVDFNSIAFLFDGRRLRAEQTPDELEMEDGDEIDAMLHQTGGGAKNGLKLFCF

Key:
Assay in all cases: two-hybrid; Gal4-based system (Clontech); AD fusions in pGAD424, BD fusions in pGBT8; yeast AH109; growth on -Leu/-Trp/-His minimal medium with 1 or 5 mM 3-AT
[1] = biological target: BD-AtSUMO1 (Arabidopsis thaliana) (UniProt P55852)
[2] = biological target: T1, BD-AtSUMO5 (Arabidopsis thaliana) (UniProt Q8VZI7)
T1 sequence: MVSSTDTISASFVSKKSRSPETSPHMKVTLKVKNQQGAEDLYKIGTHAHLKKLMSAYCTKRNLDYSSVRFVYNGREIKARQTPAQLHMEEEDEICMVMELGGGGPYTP

[3] = biological target: BD-AtSUMO2 (Arabidopsis thaliana) (UniProt Q9FLP6)
[4] = biological target: T2, BD-AtSCE1 (SUMO-conjugating E2 enzyme SCE1) (Arabidopsis thaliana) (UniProt Q42551)
T2 sequence: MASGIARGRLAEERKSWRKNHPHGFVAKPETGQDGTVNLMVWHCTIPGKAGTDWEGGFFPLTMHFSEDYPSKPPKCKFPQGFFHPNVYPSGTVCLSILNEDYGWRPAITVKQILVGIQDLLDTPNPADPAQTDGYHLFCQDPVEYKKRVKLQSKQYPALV

[5] = biological target: T3, BD-AtSUMO3 (Arabidopsis thaliana) (UniProt Q9FLP5)
T3 sequence: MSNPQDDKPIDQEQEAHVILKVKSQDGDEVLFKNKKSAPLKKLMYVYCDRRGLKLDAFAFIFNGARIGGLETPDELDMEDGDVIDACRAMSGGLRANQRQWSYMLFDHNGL

- binding [1]: binds weakly
- binding [2]: binds weakly
- binding [3]: binds weakly
- binding [4]: binds
- binding [5]: binds weakly
B1: AD-SSV3 (SIZ1 splicing variant 3, 884 aa) (enzyme, UniProt Q680Q4 1-884)
chain: MDLEANCKEKLSYFRIKELKDVLTQLGLSKQGKKQELVDRILTLLSDEQAARLLSKKNTVAKEAVAKLVDDTYRKMQVSGASDLASKGQVSSDTSNLKVKGEPEDPFQPEIKVRCVCGNSLETDSMIQCEDPRCHVWQHVGCVILPDKPMDGNPPLPESFYCEICRLTRADPFWVTVAHPLSPVRLTATTIPNDGASTMQSVERTFQITRADKDLLAKPEYDVQAWCMLLNDKVLFRMQWPQYADLQVNGVPVRAINRPGGQLLGVNGRDDGPIITSCIRDGVNRISLSGGDVRIFCFGVRLVKRRTLQQVLNLIPEEGKGETFEDALARVRRCIGGGGGDDNADSDSDIEVVADFFGVNLRCPMSGSRIKVAGRFLPCVHMGCFDLDVFVELNQRSRKWQCPICLKNYSVEHVIVDPYFNRITSKMKHCDEEVTEIEVKPDGSWRVKFKRESERRELGELSQWHAPDGSLCPSAVDIKRKMEMLPVKQEGYSDGPAPLKLGIRKNRNGIWEVSKPNTNGLSSSNRQEKVGYQEKNIIPMSSSATGSGRDGDDASVNQDAIGTFDFVANGMELDSISMNVDSGYNFPDRNQSGEGGNNEVIVLSDSDDENDLVITPGPAYSGCQTDGGLTFPLNPPGIINSYNEDPHSIAGGSSGLGLFNDDDEFDTPLWSFPSETPEAPGFQLFRSDADVSGGLVGLHHHSPLNCSPEINGGYTMAPETSMASVPVVPGSTGRSEANDGLVDNPLAFGRDDPSLQIFLPTKPDASAQSGFKNQADMSNGLRSEDWISLRLGDSASGNHGDPATTNGINSSHQMSTREGSMDTTTETASLLLGMNDSRQDKAKKQRSDNPFSFPRQKRSNNEQDHQTRHRSLNKICIILCAGKN
